Sequences of proteins named here, by UniProt entry; tags and fusion partners are left off. A change or cut given only in a name is not applied to a line headed by its entry.
UniProt Q9V9N4: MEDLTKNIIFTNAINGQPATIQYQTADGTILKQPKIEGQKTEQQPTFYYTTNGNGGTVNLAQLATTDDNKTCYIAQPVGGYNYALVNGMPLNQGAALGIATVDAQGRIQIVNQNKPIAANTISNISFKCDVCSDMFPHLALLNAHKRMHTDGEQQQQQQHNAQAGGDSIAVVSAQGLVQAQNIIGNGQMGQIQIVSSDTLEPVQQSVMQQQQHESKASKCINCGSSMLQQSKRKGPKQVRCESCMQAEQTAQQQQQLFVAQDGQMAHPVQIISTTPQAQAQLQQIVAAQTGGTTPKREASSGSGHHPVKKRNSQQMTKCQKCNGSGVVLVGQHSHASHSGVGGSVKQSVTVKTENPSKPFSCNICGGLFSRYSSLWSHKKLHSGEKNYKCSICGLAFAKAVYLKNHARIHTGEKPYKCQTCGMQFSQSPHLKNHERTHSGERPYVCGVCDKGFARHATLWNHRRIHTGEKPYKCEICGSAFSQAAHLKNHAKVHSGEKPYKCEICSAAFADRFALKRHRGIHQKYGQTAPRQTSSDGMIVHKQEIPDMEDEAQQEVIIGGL

In PMC4945028:

Experiments:
[1] = target: MBP-CLAMP 6ZF (Drosophila melanogaster) (UniProt Q9V9N4); assay: competition with a labelled probe; conditions: labeled High affinity probe, EMSA: LightShift chemiluminescent kit, 1 ug/uL poly(dI-dC), 5 mM Tris-HCl pH 8.5 elution buffer, salt and temperature not stated, recombinant protein, protein details: N-terminal MBP (pMAL-c5X)
[2] = target: MBP-CLAMP 6ZF (Drosophila melanogaster) (UniProt Q9V9N4); assay: EMSA; conditions: poly(dI-dC), EMSA: LightShift chemiluminescent kit, 1 ug/uL poly(dI-dC), 5 mM Tris-HCl pH 8.5 elution buffer, salt and temperature not stated, recombinant protein, protein details: N-terminal MBP (pMAL-c5X), label: 3' biotin on each strand

**Q.** Does “CGGGCCAGCTGCTGTCTCGCTCGCACCCGCACCGCT (double strand) [High affinity competitor]” bind [1]?
**A.** binds

**Q.** Does “CGGGCCAGCTGCTGTCTCGCTCGCACCCGCACCGCT (double strand) [High affinity]” bind [2]?
**A.** binds

**Q.** Does “CTACTATAGCAATGGGAGCGAGAAGTATCAGTCAGT (double strand)” bind ([1]; does not compete, text says High affinity competes better)?
**A.** no binding

**Q.** Does “GTATTGTTTATTTATGTAATTATAATGAGAGAGATATTGTTTATTTATTAATGTATAATT (double strand) [Four-repeat]” bind ([2]; no increase in shifted signal)?
**A.** no binding

**Q.** Does “TGTTTATTTATGTAATTATAATGAGAGAGAGAGAGAGATATTGTTTATTTATTAATGTAT (double strand) [Eight-repeat]” bind [2]?
**A.** binds

**Q.** Does “TTATGTAATTATAATGAGAGAGAGAGAGAGAGAGAGAGAGAGAGATATTGTTTATTTATT (double strand) [Fifteen-repeat]” bind ([2]; single shifted species)?
**A.** binds

**Q.** Does “TTTATTTATGTAATTATAATGAGAGAGAGAGAGAGAGAGATATTGTTTATTTATTAATGT (double strand) [Ten-repeat]” bind [2]?
**A.** binds

The exact form of at least one protein or probe is not confirmed. No signal at the amounts used counts as a negative.
